The supplement of paper PMC6411743
± gives the standard deviation of the averaged measurements. This is a selection; strong and weak results do not stand in their true shares. Most entries show no effect beyond the scatter of the controls.

The chains behind the UniProt entries cited, without tags or fusion partners. Where a name states a change or a piece, a line headed by the entry shows the natural chain unless it says otherwise.
UniProt Q8NHV1: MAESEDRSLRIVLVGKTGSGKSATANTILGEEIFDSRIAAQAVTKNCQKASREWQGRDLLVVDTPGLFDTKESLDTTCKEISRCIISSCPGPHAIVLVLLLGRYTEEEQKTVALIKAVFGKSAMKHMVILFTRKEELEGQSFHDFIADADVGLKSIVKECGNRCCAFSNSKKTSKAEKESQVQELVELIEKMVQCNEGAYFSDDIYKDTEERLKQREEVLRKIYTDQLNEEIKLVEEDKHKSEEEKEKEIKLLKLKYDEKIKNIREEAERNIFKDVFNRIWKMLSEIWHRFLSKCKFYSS
UniProt Q8NC96: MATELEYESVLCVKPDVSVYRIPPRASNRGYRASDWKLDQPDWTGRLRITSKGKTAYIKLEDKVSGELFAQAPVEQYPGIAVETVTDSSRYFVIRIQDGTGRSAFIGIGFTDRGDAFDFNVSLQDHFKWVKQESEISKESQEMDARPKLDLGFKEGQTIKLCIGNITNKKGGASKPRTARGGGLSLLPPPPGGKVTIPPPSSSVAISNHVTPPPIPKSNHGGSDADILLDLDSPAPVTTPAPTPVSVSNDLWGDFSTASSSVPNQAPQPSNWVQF
UniProt Q8N0X7: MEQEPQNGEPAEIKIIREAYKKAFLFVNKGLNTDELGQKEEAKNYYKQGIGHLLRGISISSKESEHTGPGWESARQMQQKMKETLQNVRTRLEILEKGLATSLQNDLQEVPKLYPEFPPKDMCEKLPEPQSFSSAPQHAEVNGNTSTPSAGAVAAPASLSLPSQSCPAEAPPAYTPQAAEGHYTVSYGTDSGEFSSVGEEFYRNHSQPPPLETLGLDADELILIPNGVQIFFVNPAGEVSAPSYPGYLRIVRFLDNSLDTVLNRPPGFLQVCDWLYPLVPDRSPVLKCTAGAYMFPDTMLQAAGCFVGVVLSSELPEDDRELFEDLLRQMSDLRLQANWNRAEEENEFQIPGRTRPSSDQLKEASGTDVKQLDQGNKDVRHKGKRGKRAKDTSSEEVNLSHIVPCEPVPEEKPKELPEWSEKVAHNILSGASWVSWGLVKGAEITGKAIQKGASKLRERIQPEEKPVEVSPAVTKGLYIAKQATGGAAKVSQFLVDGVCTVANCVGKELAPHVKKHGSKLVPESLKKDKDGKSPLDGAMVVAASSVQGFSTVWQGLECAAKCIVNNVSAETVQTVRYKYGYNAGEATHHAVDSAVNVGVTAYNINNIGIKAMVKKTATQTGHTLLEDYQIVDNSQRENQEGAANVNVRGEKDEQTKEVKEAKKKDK
UniProt Q8IYR2: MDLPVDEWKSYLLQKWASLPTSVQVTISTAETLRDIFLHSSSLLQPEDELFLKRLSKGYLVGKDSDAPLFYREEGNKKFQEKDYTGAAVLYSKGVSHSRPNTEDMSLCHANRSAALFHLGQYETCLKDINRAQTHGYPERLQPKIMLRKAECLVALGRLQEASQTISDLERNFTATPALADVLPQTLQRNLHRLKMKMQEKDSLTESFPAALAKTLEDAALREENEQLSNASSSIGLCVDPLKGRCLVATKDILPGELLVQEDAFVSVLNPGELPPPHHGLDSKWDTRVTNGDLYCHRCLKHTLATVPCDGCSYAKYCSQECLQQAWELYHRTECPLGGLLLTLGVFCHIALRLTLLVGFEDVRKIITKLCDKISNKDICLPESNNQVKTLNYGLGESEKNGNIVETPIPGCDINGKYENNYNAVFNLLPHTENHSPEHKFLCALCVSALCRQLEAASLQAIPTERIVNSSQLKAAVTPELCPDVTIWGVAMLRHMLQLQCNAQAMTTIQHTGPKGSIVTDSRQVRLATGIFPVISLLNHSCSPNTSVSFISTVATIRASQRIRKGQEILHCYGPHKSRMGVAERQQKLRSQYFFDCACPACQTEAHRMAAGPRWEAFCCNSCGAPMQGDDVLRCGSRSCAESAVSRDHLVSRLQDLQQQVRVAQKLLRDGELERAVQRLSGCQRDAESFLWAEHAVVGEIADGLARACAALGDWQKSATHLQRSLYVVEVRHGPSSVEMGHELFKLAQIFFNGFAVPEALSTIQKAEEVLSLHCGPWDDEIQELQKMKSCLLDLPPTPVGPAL
UniProt Q8NDV7: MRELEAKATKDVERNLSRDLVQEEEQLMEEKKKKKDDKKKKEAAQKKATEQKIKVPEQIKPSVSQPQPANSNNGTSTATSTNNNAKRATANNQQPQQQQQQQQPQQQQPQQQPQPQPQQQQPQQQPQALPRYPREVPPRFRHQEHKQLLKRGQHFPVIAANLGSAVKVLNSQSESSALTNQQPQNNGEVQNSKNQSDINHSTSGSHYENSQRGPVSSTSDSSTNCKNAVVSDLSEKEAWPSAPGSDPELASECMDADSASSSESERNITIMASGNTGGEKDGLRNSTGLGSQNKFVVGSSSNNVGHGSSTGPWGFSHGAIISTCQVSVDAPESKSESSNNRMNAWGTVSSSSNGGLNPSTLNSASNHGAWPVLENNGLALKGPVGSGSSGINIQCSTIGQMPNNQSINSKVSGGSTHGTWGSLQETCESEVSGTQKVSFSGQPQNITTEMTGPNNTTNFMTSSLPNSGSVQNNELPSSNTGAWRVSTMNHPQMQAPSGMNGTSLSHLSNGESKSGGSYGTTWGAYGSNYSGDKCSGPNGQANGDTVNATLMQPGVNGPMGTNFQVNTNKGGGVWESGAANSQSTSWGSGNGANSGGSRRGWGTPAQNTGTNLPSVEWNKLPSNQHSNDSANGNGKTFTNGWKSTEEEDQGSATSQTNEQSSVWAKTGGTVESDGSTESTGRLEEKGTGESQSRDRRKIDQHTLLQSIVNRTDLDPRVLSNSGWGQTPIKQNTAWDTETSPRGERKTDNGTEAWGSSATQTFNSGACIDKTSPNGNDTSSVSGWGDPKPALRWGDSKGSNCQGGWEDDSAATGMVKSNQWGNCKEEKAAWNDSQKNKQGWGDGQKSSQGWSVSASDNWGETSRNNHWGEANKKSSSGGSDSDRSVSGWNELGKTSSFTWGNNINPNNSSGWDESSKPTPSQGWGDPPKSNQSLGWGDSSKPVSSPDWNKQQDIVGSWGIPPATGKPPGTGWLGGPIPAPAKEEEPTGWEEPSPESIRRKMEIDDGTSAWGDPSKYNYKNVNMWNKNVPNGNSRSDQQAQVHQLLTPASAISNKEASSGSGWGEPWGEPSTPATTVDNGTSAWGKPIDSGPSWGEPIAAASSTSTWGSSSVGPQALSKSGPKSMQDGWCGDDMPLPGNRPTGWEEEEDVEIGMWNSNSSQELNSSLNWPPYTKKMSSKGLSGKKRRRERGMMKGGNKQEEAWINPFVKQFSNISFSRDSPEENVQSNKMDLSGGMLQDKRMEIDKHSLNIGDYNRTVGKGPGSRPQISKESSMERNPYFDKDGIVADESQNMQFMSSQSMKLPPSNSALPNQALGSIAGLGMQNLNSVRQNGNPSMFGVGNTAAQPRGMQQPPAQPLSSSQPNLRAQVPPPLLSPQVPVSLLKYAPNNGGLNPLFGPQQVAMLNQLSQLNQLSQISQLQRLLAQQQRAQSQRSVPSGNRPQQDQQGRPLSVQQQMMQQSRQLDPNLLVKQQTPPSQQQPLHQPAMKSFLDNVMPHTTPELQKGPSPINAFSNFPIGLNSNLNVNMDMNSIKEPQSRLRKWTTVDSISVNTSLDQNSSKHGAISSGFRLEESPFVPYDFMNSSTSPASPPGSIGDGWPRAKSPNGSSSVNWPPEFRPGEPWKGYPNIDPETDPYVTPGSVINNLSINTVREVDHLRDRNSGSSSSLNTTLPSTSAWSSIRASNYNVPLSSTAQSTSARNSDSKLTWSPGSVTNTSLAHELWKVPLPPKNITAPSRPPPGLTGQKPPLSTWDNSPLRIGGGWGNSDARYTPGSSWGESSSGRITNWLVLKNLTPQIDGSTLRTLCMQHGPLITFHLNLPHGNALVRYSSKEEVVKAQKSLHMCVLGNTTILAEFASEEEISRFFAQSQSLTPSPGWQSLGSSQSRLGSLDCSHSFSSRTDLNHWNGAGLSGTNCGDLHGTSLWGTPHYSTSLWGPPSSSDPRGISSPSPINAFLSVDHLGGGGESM
UniProt Q8IYW5, whole entry: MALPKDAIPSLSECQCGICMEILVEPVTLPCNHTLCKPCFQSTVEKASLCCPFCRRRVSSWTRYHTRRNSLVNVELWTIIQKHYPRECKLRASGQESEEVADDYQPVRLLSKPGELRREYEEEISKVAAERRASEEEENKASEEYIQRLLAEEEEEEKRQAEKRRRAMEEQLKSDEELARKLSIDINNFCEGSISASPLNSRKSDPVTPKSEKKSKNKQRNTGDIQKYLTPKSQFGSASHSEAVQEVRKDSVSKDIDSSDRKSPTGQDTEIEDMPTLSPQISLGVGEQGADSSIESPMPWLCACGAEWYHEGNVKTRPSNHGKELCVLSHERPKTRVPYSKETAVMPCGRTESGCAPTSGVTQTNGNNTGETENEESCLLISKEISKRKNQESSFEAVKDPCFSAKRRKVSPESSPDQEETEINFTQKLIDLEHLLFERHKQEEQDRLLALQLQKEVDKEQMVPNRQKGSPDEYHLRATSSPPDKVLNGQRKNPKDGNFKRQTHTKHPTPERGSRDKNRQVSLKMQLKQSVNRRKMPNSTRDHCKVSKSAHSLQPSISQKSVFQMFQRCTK
UniProt Q8NEZ2: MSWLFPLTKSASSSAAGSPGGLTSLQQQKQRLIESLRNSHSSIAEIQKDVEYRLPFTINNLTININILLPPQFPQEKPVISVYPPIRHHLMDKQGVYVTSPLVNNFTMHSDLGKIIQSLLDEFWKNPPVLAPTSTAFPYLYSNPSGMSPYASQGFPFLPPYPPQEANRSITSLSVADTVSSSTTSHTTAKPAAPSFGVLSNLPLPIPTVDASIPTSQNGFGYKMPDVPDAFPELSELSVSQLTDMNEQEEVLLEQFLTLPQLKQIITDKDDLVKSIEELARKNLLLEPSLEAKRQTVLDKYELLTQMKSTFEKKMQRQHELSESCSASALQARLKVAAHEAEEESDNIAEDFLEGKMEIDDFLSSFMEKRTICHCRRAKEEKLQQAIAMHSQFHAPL
UniProt Q8N8N7: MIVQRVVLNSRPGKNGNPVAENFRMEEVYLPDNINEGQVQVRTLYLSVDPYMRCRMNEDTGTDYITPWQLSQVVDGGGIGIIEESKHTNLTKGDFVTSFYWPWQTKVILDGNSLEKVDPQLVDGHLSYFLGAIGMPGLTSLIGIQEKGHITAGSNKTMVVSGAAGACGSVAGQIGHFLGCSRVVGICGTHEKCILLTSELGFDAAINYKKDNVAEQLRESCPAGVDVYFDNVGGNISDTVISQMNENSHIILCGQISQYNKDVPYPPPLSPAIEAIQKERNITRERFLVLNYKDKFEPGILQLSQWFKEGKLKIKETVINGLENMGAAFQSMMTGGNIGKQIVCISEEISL
UniProt Q8N5G2: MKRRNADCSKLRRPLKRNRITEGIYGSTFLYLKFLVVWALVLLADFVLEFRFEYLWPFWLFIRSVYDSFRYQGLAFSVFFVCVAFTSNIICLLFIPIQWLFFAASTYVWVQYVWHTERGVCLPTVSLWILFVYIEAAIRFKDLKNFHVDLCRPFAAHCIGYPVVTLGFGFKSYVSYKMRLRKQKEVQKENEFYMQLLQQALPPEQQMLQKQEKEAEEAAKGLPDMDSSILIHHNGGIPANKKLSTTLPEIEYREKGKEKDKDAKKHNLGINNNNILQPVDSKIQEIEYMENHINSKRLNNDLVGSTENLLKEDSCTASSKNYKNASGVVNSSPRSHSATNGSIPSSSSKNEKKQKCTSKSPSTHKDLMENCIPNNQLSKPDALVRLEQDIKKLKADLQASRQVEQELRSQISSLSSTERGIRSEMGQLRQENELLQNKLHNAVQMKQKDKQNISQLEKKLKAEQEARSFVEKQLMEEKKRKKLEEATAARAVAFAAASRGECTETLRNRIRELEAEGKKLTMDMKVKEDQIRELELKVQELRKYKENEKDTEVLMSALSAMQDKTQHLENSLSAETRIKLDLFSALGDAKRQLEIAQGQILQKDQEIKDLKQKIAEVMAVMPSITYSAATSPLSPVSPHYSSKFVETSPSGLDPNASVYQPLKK
UniProt Q8IVS2: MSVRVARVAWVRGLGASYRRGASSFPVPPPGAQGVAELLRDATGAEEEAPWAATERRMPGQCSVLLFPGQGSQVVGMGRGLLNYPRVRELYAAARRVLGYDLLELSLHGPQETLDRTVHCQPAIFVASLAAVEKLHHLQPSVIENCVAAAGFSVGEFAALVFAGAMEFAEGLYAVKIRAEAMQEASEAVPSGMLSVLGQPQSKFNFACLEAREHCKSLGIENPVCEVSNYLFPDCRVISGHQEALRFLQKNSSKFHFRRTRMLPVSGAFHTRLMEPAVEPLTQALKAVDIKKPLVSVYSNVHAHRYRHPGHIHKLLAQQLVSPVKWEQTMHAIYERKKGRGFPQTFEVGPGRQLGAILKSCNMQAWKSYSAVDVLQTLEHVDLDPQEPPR

Compound: Nc1ncnc2c1ncn2[C@@H]1O[C@H](COP(=O)(O)OP(=O)(O)OP(=O)(O)O)[C@@H](O)[C@H]1O [adenosine triphosphate]
Assay: NP40-soluble protein abundance relative to vehicle (solubility fold change) (ratio); higher = more soluble protein in presence of ATP
Method in brief: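 Eight concentrations, 0.1 to 10 mM, were tested on Jurkat crude lysate for 10 min at room temperature and then 3 min at 37 °C, in three independent experiments. The lysate was solubilised with 0.8% NP40 and benzonase, ultracentrifuged, and the supernatant TMT-labelled for LC-MS/MS. Each value is the fold change against the detergent-processed vehicle in its own replicate, from vsn-normalised intensities.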

Target	NP40-soluble protein abundance (concentration: 0.1mM)	NP40-soluble protein abundance (concentration: 0.5mM)
GIMAP7 (UniProt Q8NHV1)	0.972 ± 0.035	0.97 ± 0.058
UniProt Q8IYB5-2|Q8IYB5-3|Q8IYB5	1.01 ± 0.054	1.04 ± 0.095
UniProt Q8NBN3 and related entries	0.952 ± 0.015	1 ± 0.033
NECAP1 (UniProt Q8NC96)	1.02 ± 0.027	0.928 ± 0.19
UniProt Q8NC44	0.985 ± 0.06	0.966 ± 0.084
UniProt Q8NB15-2	1.07 ± 0.043	1.02 ± 0.034
UniProt Q8N0X7	1.02 ± 0.026	1.01 ± 0.033
UBR1 (UniProt Q8IWV7)	1.09 ± 0.079	1.06 ± 0.072
KIAA0319L (UniProt Q8IZA0)	0.982 ± 0.035	0.946 ± 0.058
SMYD4 (UniProt Q8IYR2)	1.03 ± 0.012	1.07 ± 0.064
DCP1B (UniProt Q8IZD4)	0.977 ± 0.035	0.999 ± 0.02
UniProt Q8NDV7 and related entries	0.987 ± 0.016	1 ± 0.035
UniProt Q8NFF5 and related entries	1.01 ± 0.048	0.998 ± 0.042
RNF168 (UniProt Q8IYW5)	0.976 ± 0.014	0.94 ± 0.044
UniProt Q8NEZ2 and related entries	0.922 ± 0.023	0.953 ± 0.061
PTGR2 (UniProt Q8N8N7)	1 ± 0.038	1.02 ± 0.014
UniProt Q8NHP8 and related entries	0.899 ± 0.029	0.894 ± 0.092
UniProt Q8N5A5-2|Q8N5A5 and related entries	1.02 ± 0.1	1.09 ± 0.12
UniProt Q8N5G2	1.12 ± 0.3	1 ± 0.074
UniProt Q8N9B5 and related entries	1.4 ± 0.38	0.985 ± 0.051
UniProt Q8IXI2-2|Q8IXI2-3	1.044 ± 0.0017	1.004 ± 0.0017
UniProt Q8IVS2	0.993 ± 0.048	0.98 ± 0.039

Some values from the results shown:
GIMAP7 (UniProt Q8NHV1) – NP40-soluble protein abundance (concentration: 0.5mM): 0.97 ± 0.058
UniProt Q8N5A5-2|Q8N5A5 and related entries – NP40-soluble protein abundance (concentration: 0.5mM): 1.09 ± 0.12
